According to publication PMC9381602:
No constants are given. Whether binding was seen depends on the method and setting. In cells and extracts the contact can be indirect.

The chains behind the UniProt entries cited, without tags or fusion partners. Residues count along the entry.
UniProt P02545, residues 1-646: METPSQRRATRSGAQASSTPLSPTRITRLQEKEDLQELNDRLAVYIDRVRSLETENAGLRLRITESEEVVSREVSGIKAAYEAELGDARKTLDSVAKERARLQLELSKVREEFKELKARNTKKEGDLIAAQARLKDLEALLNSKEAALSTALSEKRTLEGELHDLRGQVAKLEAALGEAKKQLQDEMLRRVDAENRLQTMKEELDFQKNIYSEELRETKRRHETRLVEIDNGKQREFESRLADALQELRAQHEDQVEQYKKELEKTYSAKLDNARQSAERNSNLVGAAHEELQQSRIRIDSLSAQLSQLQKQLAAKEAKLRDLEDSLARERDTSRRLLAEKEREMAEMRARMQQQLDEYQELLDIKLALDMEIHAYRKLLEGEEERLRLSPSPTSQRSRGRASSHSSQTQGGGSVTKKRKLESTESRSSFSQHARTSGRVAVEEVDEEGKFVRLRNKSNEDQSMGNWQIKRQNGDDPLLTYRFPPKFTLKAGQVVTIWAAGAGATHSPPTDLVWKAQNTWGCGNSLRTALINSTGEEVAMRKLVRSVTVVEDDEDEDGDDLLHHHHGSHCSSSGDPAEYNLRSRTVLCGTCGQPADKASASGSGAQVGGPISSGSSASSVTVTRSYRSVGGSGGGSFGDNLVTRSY

Biological target: T1, NONO, endogenous (human (endogenous in HCT116, U2OS, rectal cancer tissue)) (UniProt Q15233)
T1 sequence: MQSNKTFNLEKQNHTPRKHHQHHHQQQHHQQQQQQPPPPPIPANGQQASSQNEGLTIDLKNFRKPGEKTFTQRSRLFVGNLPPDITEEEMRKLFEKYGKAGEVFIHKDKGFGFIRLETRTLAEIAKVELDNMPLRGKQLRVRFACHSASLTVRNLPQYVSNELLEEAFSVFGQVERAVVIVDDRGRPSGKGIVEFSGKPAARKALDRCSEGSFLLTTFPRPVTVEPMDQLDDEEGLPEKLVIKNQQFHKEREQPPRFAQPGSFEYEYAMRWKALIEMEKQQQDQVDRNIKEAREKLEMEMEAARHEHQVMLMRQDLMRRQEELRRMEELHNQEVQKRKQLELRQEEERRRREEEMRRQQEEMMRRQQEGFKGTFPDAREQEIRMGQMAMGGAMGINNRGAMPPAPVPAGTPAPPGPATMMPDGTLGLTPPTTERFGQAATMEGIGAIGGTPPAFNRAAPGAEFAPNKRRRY
Experiment: co-IP; cytoplasmic and nuclear proteins of HCT116 cells fractionated, then co-IP with anti-NONO antibody

For “Lamin A/C, endogenous (from UniProt P02545 1-646)”, the binding was “no binding”.
